# The full ranking holds about 3,200 compounds; the median of “TSA(with NAD+) / Primary screening (TSA) / delta Tm (K)” is about -0.04, and the highest 2% start at about 0.37. The list shows a part of the results.
# Amino acid sequences for entries named in this document (tags omitted). Residues count along the entry.
# UniProt Q96EB6, 2-747 limits assumed: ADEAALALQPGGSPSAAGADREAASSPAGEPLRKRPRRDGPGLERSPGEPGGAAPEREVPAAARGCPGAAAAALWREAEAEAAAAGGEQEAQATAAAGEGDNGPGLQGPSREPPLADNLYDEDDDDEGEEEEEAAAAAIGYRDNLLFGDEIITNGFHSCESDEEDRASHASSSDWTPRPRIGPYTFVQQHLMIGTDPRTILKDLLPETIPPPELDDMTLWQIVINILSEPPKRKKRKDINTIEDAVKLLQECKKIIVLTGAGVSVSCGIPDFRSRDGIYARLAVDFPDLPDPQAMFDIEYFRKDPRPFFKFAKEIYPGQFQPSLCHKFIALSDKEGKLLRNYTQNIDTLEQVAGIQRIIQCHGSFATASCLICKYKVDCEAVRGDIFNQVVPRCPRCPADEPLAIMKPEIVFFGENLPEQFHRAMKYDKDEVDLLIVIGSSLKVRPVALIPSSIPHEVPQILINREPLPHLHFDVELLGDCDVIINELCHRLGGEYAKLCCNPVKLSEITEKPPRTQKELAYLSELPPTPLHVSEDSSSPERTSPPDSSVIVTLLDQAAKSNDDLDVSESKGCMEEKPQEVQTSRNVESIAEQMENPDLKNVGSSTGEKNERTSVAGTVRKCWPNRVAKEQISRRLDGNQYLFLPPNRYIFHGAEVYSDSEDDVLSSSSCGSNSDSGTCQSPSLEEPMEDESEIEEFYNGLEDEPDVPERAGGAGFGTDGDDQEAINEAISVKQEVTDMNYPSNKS
# Molecular target: NAD-dependent deacetylase Sirtuin 1 (human, UniProt Q96EB6)
# Experiment: primary screen, delta tm
# Design: single well (n = 1, as 'the same TSA')
# Conditions: 10 µM
# Experimental: A total of 3,192 compounds extracted from the proposed lists were first screened by thermal shift assay (TSA), which determined a melting temperature shift (ΔTm) of Sirtuin 1 upon the addition of a test compound at a concentration of 10 µM (n = 1) with primary hit criteria of ΔTm > 0.45 K or ΔTm < −1.5 K. Primary hits (48 compounds) were retested in the same assay at three concentrations (5, 10, 20 µM, n = 4) for hit confirmation and for dose-dependency check. Secondary hits (41 compounds) were checked their selectivity for Sirtuin 1 based on counterscreening on unrelated protein targets (bovine carbonic anhydrase (CA) and recombinant SH2 domain of hABL1 kinase (ABL1)) at three different concentrations (5, 10, 20 µM, n = 4), which yielded 38 hit compounds, hereafter referred to as TSA hits. The TSA screening above was conducted in the absence of NAD+. As noted, the structure of Sirtuin 1 is different in the presence of NAD+ and substrate. The chemical profile of TSA hits found from the different conditions could be different. […] As a result, 39 TSA hits were found.
row,Compound,TSA(with NAD+) / Primary screening (TSA) / delta Tm (K)
1,CC(NC(=O)COC(=O)CCCN1C(=O)c2cccc3cccc(c23)C1=O)C12CC3CC(CC(C3)C1)C2 (stereo not shown),-0.11
2,OCCCCN1CCN(c2ncnc3cc(Cl)ccc23)CC1,-0.08
3,Cc1cc(C=C2C(=O)NC(=S)NC2=O)c(C)n1-c1ccccc1Cl,-1.22
4,NC(=O)c1ccc(NC(=O)COC(=O)/C=C/c2ccc3c(c2)OCO3)cc1,-0.23
5,CN(C(=O)c1cc(O)nc2ccccc12)c1ccc2ccccc2c1,-0.03
6,O=C(CN1CCN(C(=O)c2cc(-c3ccncc3)nc3ccccc23)CC1)Nc1ccccc1Cl,-0.21
7,NC(=O)C1CCCCCC1NC(=O)c1ccncc1Cl (stereo not shown),-0.11
8,O=C(N/N=C/c1ccc(O)cc1O)C(=O)N/N=C/c1ccc(O)cc1O,0.06
9,COc1ccc(/C=C2\Oc3cc(OC)ccc3C2=O)c(OC)c1,0.15
10,CC(=O)Nc1ccc(-c2csc(NC(=O)Cn3[nH]c(=O)ccc3=O)n2)cc1,0.05
11,CC(C)OCCN,-0.12
12,CC1CN(CC(=O)c2ccccc2Cl)CC(C)O1 (stereo not shown),-0.22
13,CN(c1cccc(Cl)c1)S(=O)(=O)c1cccc(C(=O)Nc2ncc(C(N)=O)s2)c1,0.31
14,CCC(C)(C)NC(=O)c1ccc2[nH]c(=O)c(=O)[nH]c2c1,-0.01
15,CN(C)c1ccc(CNc2ncnc3ccsc23)cn1,-0.11
16,O=C1CC2(CCCCC2)CC(=O)C1=CN/N=C1/C(=O)Nc2ccccc21,-0.02
17,Cc1ccc(C)c(C(=O)CCC(=O)OC(C)C(=O)Nc2ccc(C(N)=O)cc2)c1 (stereo not shown),-0.01
18,Cc1nc(CSc2nccn2Cc2ccccn2)cs1,-0.01
19,c1ccc2[nH]c(-c3nc4c5ccccc5ncn4n3)cc2c1,0.01
20,CN1CCC(NC(=O)c2cnc(N)c(Cl)c2)C1c1ccc(F)cc1 (stereo not shown),-0.09
21,COc1ccc(NC(=O)CCN2C(=O)c3ccc(C)cc3C2=O)cc1OCc1cn2ccccc2n1,-0.11
22,COCCN(C)CCN,-0.13
23,N#Cc1c2c(c(Cl)n3c1nc1ccccc13)CCCC2,0.03
24,O=C(CC12CC3CC(CC(C3)C1)C2)NNC(=O)c1ccc(NS(=O)(=O)/C=C/c2ccccc2)cc1,0.21

# In the list so far, two have two or more sulfur atoms.
row,Compound,TSA(with NAD+) / Primary screening (TSA) / delta Tm (K)
13,CN(c1cccc(Cl)c1)S(=O)(=O)c1cccc(C(=O)Nc2ncc(C(N)=O)s2)c1,0.31
18,Cc1nc(CSc2nccn2Cc2ccccn2)cs1,-0.01

# (continued)

row,Compound,TSA(with NAD+) / Primary screening (TSA) / delta Tm (K)
1,Cc1c(C(=O)C2=C(O)C(=O)N(CCCN3CCOCC3)C2c2cccs2)cnn1-c1ccccc1 (stereo not shown),-0.06
2,COc1ccnc(N2CCN(C(=O)c3ccc(C(N)=O)s3)CC2)n1,-0.13
3,COc1ccc(CN(C)C(=O)c2cnc3ccccn3c2=O)cc1F,0.15
4,Cn1cc(S(=O)(=O)N2CCN(C(=O)Cn3cnc4ccc(F)cc4c3=O)CC2)cc1C(N)=O,-0.13
5,O=C1OC(C(=O)O)Cc2ccccc21 (stereo not shown),-0.01
6,COCc1nnc(S)[nH]1,-0.18
7,Cc1ccc(C(=O)C2CCN(c3cc(=O)n4ccccc4n3)CC2)cc1,-0.06
8,CC(C(=O)Nc1cccc2ccccc12)N1CCc2ccc(O)cc2CC1 (stereo not shown),-0.03
9,NS(=O)(=O)Nc1cccc(CNC(=O)CCCc2nc3ccccc3c(=O)[nH]2)c1,-0.03
10,CCOc1ccccc1NC(=O)c1cccc(S(=O)(=O)NC(C)C23CC4CC(CC(C4)C2)C3)c1 (stereo not shown),0.17
11,CC(C)C(C)CN (stereo not shown),0.06
12,O=C1NC(=S)N/C1=C\c1ccccc1OCc1ccc(C(=O)O)cc1,0.23
13,N#Cc1ccccc1Sc1ccccc1C(=O)OCC(=O)NC(=O)NC12CC3CC(CC(C3)C1)C2,0.06
14,COc1ccc(CCSc2nnc(-c3cccnc3)n2N)cc1,0.01
15,Cc1ccc2nc(Cl)c(C=C3C(=O)NC(=S)NC3=O)c(=O)n2c1,-0.22
16,CCc1nsc(NCc2cccnc2N2CCC(C(N)=O)CC2)n1,-0.24
17,OCCN(c1ncnc2c1oc1ccccc12)C1CC1,-0.19
18,COc1ccc(CCCC(=O)Nc2ccc(C(N)=O)cc2OCC(F)F)cc1,-0.09
19,COCCNc1oc2c(c1-c1ccccc1[N+](=O)[O-])c(=O)oc1c(C)cccc12,-0.12
20,Cn1cnc(-c2ccc(OCC(=O)Nc3cccc(C(=O)NC4CC4)c3)cc2)n1,-0.28
21,O=C(/C=C/c1ccccn1)NCc1ccc(OCC2CCCO2)cc1 (stereo not shown),-0.04
22,O=C(NCC1CCCO1)Nc1ccc(NC(=O)c2ccccn2)cc1 (stereo not shown),0.06
23,O=C1/C(=C/c2ccccc2OC(F)F)Oc2cc(O)ccc21,0.15
24,O=C(O)c1ccc2[nH]c(S)nc2c1,-0.13

# Some values from the entries so far.
# NS(=O)(=O)Nc1cccc(CNC(=O)CCCc2nc3ccccc3c(=O)[nH]2)c1 – TSA(with NAD+) / Primary screening (TSA) / delta Tm (K): -0.03
# O=C(O)c1ccc2[nH]c(S)nc2c1 – TSA(with NAD+) / Primary screening (TSA) / delta Tm (K): -0.13
# O=C1OC(C(=O)O)Cc2ccccc21 (stereo not shown) – TSA(with NAD+) / Primary screening (TSA) / delta Tm (K): -0.01
# CC(C(=O)Nc1cccc2ccccc12)N1CCc2ccc(O)cc2CC1 (stereo not shown) – TSA(with NAD+) / Primary screening (TSA) / delta Tm (K): -0.03
# Cc1ccc2nc(Cl)c(C=C3C(=O)NC(=S)NC3=O)c(=O)n2c1 – TSA(with NAD+) / Primary screening (TSA) / delta Tm (K): -0.22

# Later entries:

row,Compound,TSA(with NAD+) / Primary screening (TSA) / delta Tm (K)
1,CC1CC1c1ccc(CCC(=O)NCC2CCCN(Cc3cccs3)C2)o1 (stereo not shown),-0.03
2,Cc1ccc2c(c1)c(=O)n(C)c1nnc(CN3CCc4ccccc4C3)n21,-0.26
3,CCc1cc2c(N3CCN(Cc4ccc5c(c4)OCO5)CC3)ncnc2s1,-0.11
4,O=C(CCn1ccccc1=O)Nc1cccnc1,-0.14
5,CC(O)C(N)CN (stereo not shown),-0.03
6,NC(=O)C1CC(O)CN1c1ncnc2cc(-c3ccc(Br)cc3)sc12 (stereo not shown),-0.28
7,Cc1ccc(NC(=O)c2cc3c(nc4sccn43)s2)c(O)c1,0.31
8,Cc1nc(N2CCN(c3ncccc3C(N)=O)CC2)c2c3c(sc2n1)CCC3,0.02
9,O=C(Nc1ccccc1Cc1ccccc1)C12CC3CC(CC(Br)(C3)C1)C2,-0.16
10,Cc1cccc(-n2ccnc2SCC(=O)Nc2ccc(S(=O)(=O)Nc3nccs3)cc2)c1C,0.13
11,O=C(NC1CCN(C(=O)Nc2ccc([N+](=O)[O-])cc2)CC1)c1ccccn1,-0.15
12,NC1=Nc2nc3ccccc3n2C(c2ccc(-c3ccc(C(=O)O)cc3)o2)N1 (stereo not shown),1.27
13,CN/C(=N/c1ccc2ccccc2c1)c1ccccc1,-0.05
14,O=C(CCc1nc2ccccc2c(=O)[nH]1)Nc1cccc(S(=O)(=O)NCc2ccco2)c1,0.05
15,Cc1c(C)n(-c2ccc(O)cc2)c2ncnc(N)c12,-0.02
16,Cc1nc(C(=O)NC(Cc2ccccc2)C(=O)N(C)C)ccc1C#N (stereo not shown),-0.01
17,Cc1nn(C)c2nc(-c3ccccc3)cc(C(=O)N3CCN(Cc4ccccc4F)CC3)c12,-0.28
18,Cc1cc(C)n(-c2nc(C)nc3c2cnn3-c2ccccc2)n1,-0.12
19,CC1CCCN(C(=O)CSc2nncn2-c2ccccc2)C1 (stereo not shown),-0.12
20,COc1ccc(C2C(C(=O)c3cccs3)=C(O)C(=O)N2CCCN2CCOCC2)cc1OC (stereo not shown),-0.03
21,CC(=O)N1Cc2ccccc2CC1C(=O)NC1CCOc2ccccc21 (stereo not shown),-0.13
22,CC(C)(C)C(=O)Nc1cccc(NC2CCCCNC2=O)c1 (stereo not shown),0.06
23,C=CC(N)CO (stereo not shown),-0.15
24,COc1cccc(C(=O)C2=C(O)C(=O)N(CCCN3CCOCC3)C2c2cccc(F)c2)c1 (stereo not shown),0.08

row,Compound,TSA(with NAD+) / Primary screening (TSA) / delta Tm (K)
1,CCCNC(=O)C(C#N)C(=O)c1cc2ccc(C)cc2nc1C (stereo not shown),-0.06
2,CC(C)C(CNC(=O)COc1ccc(C(N)=O)cc1)N1CCc2ccccc2C1 (stereo not shown),-0.01
3,C=CCOc1ccc(C(=O)C2=C(O)C(=O)N(CCN3CCOCC3)C2c2ccc(OCC)cc2)cc1 (stereo not shown),-0.03
4,O=C(CC(c1ccccc1)c1ccccc1)N1CCN(c2ccc([N+](=O)[O-])c3cnccc23)CC1,-0.06
5,COc1ccc(Cl)cc1NC(=O)CSc1nnc(-c2ccc(Cl)cc2)n1N,0.09
6,O=C1COc2cc(C(=O)Nc3ccc4c(c3)-c3ccccc3C4)ccc2N1,0.11
7,CCCc1ccc(C(Nc2ccc3nnnn3n2)C(C)C)cc1 (stereo not shown),-0.11
8,O=C(CNC1=NS(=O)(=O)c2ccccc21)Nc1ccc(N2CCN(Cc3ccccc3)CC2)cc1,0.09
9,O=C(C1=C(O)C(=O)N(CCCN2CCOCC2)C1c1cccs1)c1cc2ccccc2o1 (stereo not shown),-0.05
10,CC1CC1C(=O)NCc1ccccc1-c1ccc(CN2CCCC2)cc1 (stereo not shown),-0.21
11,CN(c1ccccc1)S(=O)(=O)c1cccc(NC(=O)c2cccc(C#N)c2)c1,0.08
12,CC1CCc2[nH]c3ccc(C(=O)N(C)C)cc3c2C1 (stereo not shown),-0.02
13,Cc1nc(C)c(C(=O)C2=C(O)C(=O)N(CCN3CCOCC3)C2c2ccco2)s1 (stereo not shown),-0.11
14,CC1Cc2ccccc2N1c1ncnc2ccsc12 (stereo not shown),-0.09
15,Cc1[nH]c2ccccc2c1C(=O)CN1CCC(C(N)=O)CC1,-0.03
16,Cc1cc(C(=O)COC(=O)c2ccc(-c3ccc(O)cc3)cc2)c(C)n1C,-0.06
17,Oc1ccc2ccccc2c1/C=N/c1c(F)c(F)c(F)c(F)c1F,-0.23
18,N=C(N)NCCN,-0.13
19,CC1CCCC(NC(=O)COC(=O)CCCOc2ccccc2)C1C (stereo not shown),-0.13
20,NC(=O)C1CCCCC1Nc1ncnc2cc(F)c(F)cc12 (stereo not shown),0.07
21,COc1cccc(NN=C2C(=O)NC(=S)NC2=O)c1,-0.01
22,O=C(O)C(=O)Nc1ccccc1,0.25
